# Where “and” joins values, the source holds several entries; their conditions need not be identical. Identical values can stand only once. The whole screen tested about 200,000 compounds, of which about 25 (0.01%) were called active. The shares of active, inactive and inconclusive entries below differ from those in the screen. Calls come from the whole dose curve; as a rule, active = well fitted inhibition curve with a large enough effect in the signal ratio, with a control signal flat (not every such curve was filed as active); inconclusive = small, poorly fitted or top-dose-only effect, or effect the other way, or a change in a side signal; inactive = flat fitted curve, though single readings scatter; the % refers to the signal ratio. Where the call is inconclusive, the potency comes from a doubtful curve fit.
# Assay: qHTS Assay for Modulators of Lamin A Splicing
# Conditions: HeLa LMNA splicing GFP/RFP minigene ratio, 48 h; ratio change, negative = inhibition: at 46.1 µM (top of the series) unless noted
# Outline: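 S3 HeLa cells stably expressing lamin A-EGFP splicing minigene plus DsRed2, 600 cells/well, 48 h compound exposure at 37C. Laser-scanning cytometry; analysed as GFP (500-530 nm)/RFP (575-640 nm) total intensity ratio; 0.5% DMSO vehicle.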
# % is set by controls: 0 for no effect and ±100 for the full control effect; potency is the fitted concentration of half-maximal effect.
Compound,"ratio change, negative = inhibition",Potency
CN(C)c1ccc(N=Cc2ccco2)cc1,inconclusive: 3.49%,–
Cc1ccsc1/C=N/Nc1nc(=O)[nH]nc1C,–,"inconclusive: 7.94 µM [inhibitor, single point]"
Cc1ccc(NCc2nnc(SCC(=O)N(Cc3ccccc3)C(C)(C)C)o2)c(C)c1,inconclusive: -31.9%,–
O=C(NCC(c1ccc2c(c1)OCO2)N1CCOCC1)C(=O)Nc1ccc(F)cc1F (stereo unspecified),inconclusive: 11.2% [at 46 µM],–
CSc1nc(Cc2ccccc2)nc2ccccc12,inconclusive: 14.6% [at 46 µM],–
FC(F)(F)c1ccccc1-c1nc(Nc2ccncc2)c2ccccc2n1,–,"inconclusive: 8.91 µM [inhibitor, partial curve, poor fit]"
COc1ccccc1CNC(=O)Cc1csc2nc(-c3ccccc3)cn12,inconclusive: -13.8% [at 46 µM],–
Cc1cccc(CCNC(=O)c2cnc3c(C)cccn3c2=O)c1,inactive,–
CCN1CCN(C(=O)Nc2ccccc2OC)CC1,inactive,–
O=C(O)c1cn(-c2ccc(F)cc2)c(=O)c2ccccc12,–,"inconclusive: 0.282 µM [inhibitor, partial curve]"
CCS(=O)(=O)N1CCC(C(=O)NCC2CCCO2)CC1 (stereo unspecified),inactive,–
Clc1ccc(CN(Cc2ccc(Cl)cc2)c2nn[nH]n2)cc1,inconclusive: -24.2% [at 9.22 µM],–
CCOc1cc(CNCCc2ccc(S(N)(=O)=O)cc2)cc(Cl)c1OCc1ccccc1,inconclusive: -6.19%,–
CCOc1ccccc1NC(=S)N1CCN(c2nc(-c3ccc(F)cc3)cs2)CC1,inconclusive: 19.2% [at 46 µM],–
Cc1cc(S(=O)(=O)N2CCN(c3c(C)cccc3C)CC2)ccc1F,–,"inconclusive: 20 µM [falling, single point]"
Cc1ccc(S(=O)(=O)Oc2ccc(/C=C(/NC(=O)c3ccccc3)C(=O)Nc3ccccc3)cc2)cc1,inactive,–
O=C1NCCN1C(=O)N(c1ccccc1)c1ccccc1,inactive,–
C=C(C)C1CC=C(C)/C(=N/NC(=O)c2cccc([N+](=O)[O-])c2)C1 (stereo unspecified),–,"inconclusive: 35.5 µM [fluorescent, single point]"
COc1cc(C(=O)NCc2nnc(SCC(=O)N3CCCc4ccccc43)o2)cc(OC)c1OC,inactive: 17.6% [at 9.22 µM],–
O=C(Nc1cccc(Cl)c1)c1ccc2nc(CCc3ccccc3)oc2c1,inconclusive: -9.31% [at 46 µM],–
Cc1ccccc1-c1cc(NCc2ccccc2)ncn1,inconclusive: -19.1%,–

Compound,"ratio change, negative = inhibition",Potency
COc1cccc2cc(C(C)N(CCCN3CCOCC3)C(=S)Nc3cc(C)cc(C)c3)oc12 (stereo unspecified),inconclusive: 11.2% [at 46 µM],–
CC(=O)Oc1ccc2cc(-c3nc4ccccc4n3C)c(=O)oc2c1,inconclusive: 11.1%,–
CC1CCC2(C(=O)O)CCC3(C)C(=CCC4C3(C)CCC3[C@@]4(C)CC(O)C(O)[C@@]3(C)CO)C2C1C (stereo partly specified),inconclusive: -35.3%,–
CCn1c(C)cc2c(c1=O)C(c1ccc3c(c1)OCO3)C(C#N)=C(N)O2 (stereo unspecified),inactive,–
CCCSc1nnc2n(N)c(=O)c3ccccc3n12,inactive,–
CCOC(=O)N1CCN(C(=O)C2CCN(CC3CCCCC3)CC2)CC1,inactive,–
CC(=O)Oc1ccc(C(=O)Cc2ccc3ccccc3n2)c(O)c1C,inactive,–
O=C(NCc1cccs1)c1noc2c1CCCC2,–,"inconclusive: 35.5 µM [fluorescent, single point]"
Cc1ccc(C2=Nc3ccccc3N(CC(=O)Nc3ccccc3F)C(=O)C2)cc1C,inactive,–
C=CCOc1ccccc1OC[C@H](O)CNC(C)C,–,"inconclusive: 0.126 µM [inhibitor, full curve, poor fit]"
c1ccc2nc3c(nc2c1)sc1nc2ccccc2n13,inactive,–
CCOC(=O)c1c(C)sc(-c2c(-c3ccc4c(c3)OCCO4)[nH]c3c2c(=O)n(C)c(=O)n3C)c1O,inconclusive: -95.4% [at 46 µM],–
CC1CCN(C(=O)CSc2nnc(-c3ccc(S(=O)(=O)N4CCOCC4)cc3)n2C)CC1,inactive,–
Oc1[nH]c2ccccc2c1C=Nc1ccc2c(c1)OCCO2,–,"inconclusive: 14.1 µM [falling, single point]"
CCn1c(=O)cc(OCC(=O)N(C)C2CCCCC2)c2ccccc21,inactive,–
COc1ccc(-n2nc3c(N4CCCC(C(=O)NCc5ccc(C)cc5)C4)nnc(C)c3c2C)cc1 (stereo unspecified),inconclusive: 135% [at 46 µM],–
C=CCn1c(NCCc2ccccc2)nc2c1c(=O)n(C)c(=O)n2C,–,"inconclusive: 11.2 µM [fluorescent, single point]"
C=CCn1c(COc2ccc(Cl)cc2)nnc1SCC(=O)NCC(=O)OCC,inactive,–
COc1ccc(OCc2nnc(SCC(=O)N3CCCc4ccccc43)n2-c2ccc(C)cc2)cc1,inconclusive: 36.3%,–
Cc1cccc2sc(N(Cc3cccnc3)C(=O)c3cccs3)nc12,inconclusive: -8.6% [at 46 µM],–
CCOc1cc2[nH]c(=O)n(CCCCC(=O)N3CCN(c4cccc(Cl)c4)CC3)c(=O)c2cc1OCC,inconclusive: -12% [at 46 µM],–

Compound,"ratio change, negative = inhibition",Potency
CC(C)(C)C1CCc2c(sc3nc(-c4cc5cc(Br)ccc5oc4=O)[nH]c(=O)c23)C1 (stereo unspecified),inactive,–
CCOc1cc(S(=O)(=O)NCc2ccncc2)ccc1Cl,–,"inconclusive: 0.562 µM [inhibitor, full curve]"
COCCCNc1nc(-c2ccncc2)nc2ccccc12,inconclusive: -19.4%,–
c1ccc(Cc2nnc3sc(-c4ccc5c(c4)OCCO5)nn23)cc1,inactive,–
CC(C)CNC(=O)CSc1nnc(-c2ccccn2)n1Cc1ccccc1,inconclusive: 17.1%,–
CCN1CCN(C(=S)NCC2CCCO2)CC1 (stereo unspecified),inactive,–
Cc1nc(-n2nnc3ccccc32)c2c3c(sc2n1)CCCC3,–,"inconclusive: 35.5 µM [fluorescent, single point]"
CCN=c1scc(C)n1/N=C/c1cc(Br)c(O)c(Br)c1,inconclusive: -39.7% [at 46 µM],–
Cc1cccc(-n2cc(-c3ccccc3)c3c(NC4CCCC4)ncnc32)c1,inconclusive: -21% [at 46 µM],–
CCOC(=O)c1c(NC(=O)c2ccc(S(=O)(=O)N3CCC(C)CC3)cc2)sc2c1CCN(CC)C2,–,"inconclusive: 35.5 µM [cytotoxic, single point]"
Cc1cc(NC(=O)CSc2nc(C3CCCCC3)nc3ccccc23)no1,inconclusive: -29.6%,–
CCOC(=O)c1ccc(NC(=O)CCC(=O)N2Cc3ccccc3Oc3ncccc32)cc1,inconclusive: -9.02% [at 46 µM],–
CCc1ccc(NC(=O)CCn2cccc2)cc1,inactive,–
O=C(CSc1ccc(-c2ccco2)nn1)N1CCCCCC1,inconclusive: 21.8% [at 46 µM],–
O=C(NC1CCCCC1)C1CCCN(c2nnnn2-c2ccccc2)C1 (stereo unspecified),inactive,–
CC(=O)CCc1ccc(Oc2nc(-c3cccnc3)nc3ccccc23)cc1,inconclusive: -32% [at 46 µM],–
CCCc1ccc(S(=O)(=O)NCCc2ccncc2)cc1,–,"inconclusive: 12.6 µM [falling, partial curve]"
CN(C)c1ccc(CNC(=O)c2cnc3sc(N4CCOCC4)nn3c2=O)cc1,inactive,–
Cc1ccccc1NC(=O)c1ccc([N+](=O)[O-])o1,–,"inconclusive: 35.5 µM [cytotoxic, single point]"
Cc1nn2c(=O)cc(COC(=O)c3ccc(NC(=O)C4CCCCC4)cc3)nc2s1,inactive,–
C/C(CC(=O)NC(C)(C)C)=N\NC(=O)COc1ccc(C)cc1Br,inconclusive: 20.8% [at 46 µM],–

Compound,"ratio change, negative = inhibition",Potency
Cc1nn2c(=O)cc(COC(=O)c3cccc(NC(=O)c4cccs4)c3)nc2s1,inconclusive: -13.1% [at 46 µM],–
COc1ccc(Br)cc1S(=O)(=O)NNC(=O)c1c(C)nc2ccccn12,inactive,–
Cc1c(C(=O)Oc2cccc3ccccc23)cnn1-c1ccccc1,–,"inconclusive: 35.5 µM [falling, single point]"
CCCc1nnc(SCC(=O)N2CCCCC2)n1CCCOC,inactive,–
Cc1cc([N+](=O)[O-])ccc1NC1CCCC1,–,"inconclusive: 22.4 µM [fluorescent, single point]"
O=C(CSc1nc2ncc(Br)cc2[nH]1)Nc1ccc2c(c1)OCO2,inactive,–
O=C1NC(=O)C2(COC(c3cccc([N+](=O)[O-])c3)OC2)S1 (stereo unspecified),inactive,–
CSCCC(NS(=O)(=O)c1ccc(Cl)cc1)C(=O)OCc1c(Cl)cccc1Cl (stereo unspecified),–,"inconclusive: 35.5 µM [falling, single point]"
CN1CCN(C(=O)/C(=C\c2cccs2)NC(=O)c2ccco2)CC1,inactive,–
O=C(OCc1nc2ccccc2s1)C1CCN(S(=O)(=O)c2cccs2)CC1,inactive,–
O=C(CSC(=S)N1CCOCC1)Nc1nc(-c2ccccc2)c(-c2ccccc2)o1,inconclusive: -19.2%,–
COc1ccc(-c2nc3c(c4c2C[C@H](c2ccccc2)OC4)CN(C(=O)Nc2cccc(C#N)c2)CC3)c(C)c1,inconclusive: -30.8% [at 9.22 µM],–
CCCCNC(=O)NS(=O)(=O)c1ccc(C)cc1,inconclusive: -16.5% and inconclusive: -13.7%,–
COc1ccc(NC(=O)c2cc(-c3ccco3)nc3ccccc23)cc1S(=O)(=O)N1CCOCC1,inactive,–
CCCCOc1ccc(C(=O)Nc2ccc(S(=O)(=O)Nc3cc(C)on3)cc2)cc1OC,inconclusive: 38%,–
O=C(CCN1C(=O)COc2ccccc21)NCCN1CCN(c2ccccc2F)CC1,inconclusive: 14.3%,–
Oc1ccc(N2CCN(C(c3ccncc3)c3nnnn3C3CCCC3)CC2)cc1 (stereo unspecified),inactive,–
Cc1cccc(N2CCN(C(=O)CSCc3ccc(F)cc3)CC2)c1C,inconclusive: -25.8% [at 46 µM],–

# Source: PubChem BioAssay AID1487 (National Center for Advancing Translational Sciences (NCATS), 2009)
